# According to PubChem BioAssay AID588497 (NMMLSC, 2011):
# Hit rate of the full screen: of about 360,000 compounds, about 780 (0.22%) were called active. The shares of active, inactive and inconclusive entries below differ from those in the screen. Cut-off read from the data, not from the text of the source: active = inhibition above about 35% (passing the limit was not always enough); inconclusive = no clear call, values can overlap the other calls.
# System: Botulinum neurotoxin type F light chain protease (Clostridium botulinum)
# Test: BoNT/F light chain protease inhibitors, primary screen, biochemical, flow cytometry, MLPCN library (AID 588497); note: plate controls were buffer without enzyme for full effect and enzyme alone for no effect
# Details: Multiplex microsphere protease cleavage assay, at 10 µM, hits give high values
row,SMILES,inhibition
1,CCN1CC=C2C(C1)C(c1ccc(Cl)s1)C(C#N)=C(N)C2(C#N)C#N (stereo not drawn),inactive: -0.6%
2,Cc1cc(C)c(NC(=O)C(C)N2CCCCCC2)c(C)c1 (stereo not drawn),inconclusive: -22.8%
3,CCC1NC(C(=O)O)Cc2c1[nH]c1ccccc21 (stereo not drawn),inactive: -3.5%
4,CCn1nc(C)c(CNC(=O)c2cc(COc3ccc(C)nc3)on2)c1C,inactive: 0%
5,COc1ccc(CN2CCCC(CO)(Cc3ccc(F)cc3)C2)c(OC)c1OC (stereo not drawn),inconclusive: 28.5%
6,NS(=O)(=O)c1ccc(CCNC(=O)Cc2cccs2)cc1,inconclusive: 5.7%
7,CCCCN(C(=O)c1ccc(S(=O)(=O)N2CCCC2)cc1)C1CCS(=O)(=O)C1 (stereo not drawn),inconclusive: -9.9%
8,C[C@H](CO)N1C[C@H](C)[C@H](CN(C)C(=O)Nc2ccc(C(C)(C)C)cc2)OCc2cnnn2CCCC1=O,inactive: -5.1%
9,C=CCNC(=S)NNC(=O)CC12CC3CC(CC(C3)C1)C2,inconclusive: -47.7%
10,COCCSc1nnc(NC(=O)Cc2ccccc2OC)s1,inconclusive: -1.6%
11,S=C1NNC2(NN1)C1CC3CC(C1)CC2C3,inconclusive: 12.8%
12,O=C(O)c1ccc(CN2C(=O)c3cccc4c([N+](=O)[O-])ccc(c34)C2=O)cc1,inactive: 5.6%
13,CCOC(=O)c1ccc2c(c1)C1C=CCC1C(C(=O)OCC)N2 (stereo not drawn),inconclusive: -42.6%
14,O=C(NCc1ccccn1)c1ccc(Cl)cc1Cl,inactive: 8.1%
15,COc1cc(NS(=O)(=O)c2ccc3[nH]c(=O)[nH]c3c2)cc(OC)c1,inconclusive: -1%
16,Cn1c(SCC(N)=O)nnc1-c1cnccn1,inactive: -4.8%
17,Cc1ccc(/C=N/n2c(-c3ccncc3)n[nH]c2=S)s1,inconclusive: -35.5%
18,O=C(/C=C/c1ccc(Cl)c(Cl)c1)NCc1ccco1,active: 35.3%
19,O=C(Nc1ncccn1)c1cccs1,inconclusive: 20.5%
20,CCC(C)(C)NC(=O)C(c1ccc(OC)cc1)N(CC1CCCO1)C(=O)CCC(=O)Nc1cc(C)on1 (stereo not drawn),inconclusive: 2.7%

# Reformatted tab-delimited: entries from further up.
row	SMILES	inhibition
11	S=C1NNC2(NN1)C1CC3CC(C1)CC2C3	inconclusive: 12.8%
12	O=C(O)c1ccc(CN2C(=O)c3cccc4c([N+](=O)[O-])ccc(c34)C2=O)cc1	inactive: 5.6%

# Continued:

row,SMILES,inhibition
1,CCC(CC)COC(=O)C1=C(C)NC(=O)NC1c1ccccc1Br (stereo not drawn),inconclusive: -8.1%
2,CCc1ccccc1NC(=O)CNC(=O)CNC(=O)c1cccs1,inactive: -0.7%
3,FC(F)(F)c1cc(N2CCNCC2)c2ccccc2n1,inconclusive: -41.5%
4,COc1ccc(F)cc1S(=O)(=O)n1cnc2ccccc21,inconclusive: -15.3%
5,Cc1ccc(-c2ccc(/C=C(\C#N)C(N)=S)n2C)cc1,inconclusive: 27.9%
6,O=C(Nc1ccc2[nH]c(=O)[nH]c2c1)c1cccc([N+](=O)[O-])c1,inconclusive: -21.3%
7,O=C(COC(=O)CC1CCCC1)Nc1ccccc1[N+](=O)[O-],inactive: 3.7%
8,COc1ccc(N2CCN(c3nc(C)c(C)c(=O)[nH]3)CC2)cc1,inconclusive: -152%
9,Cc1cccc(NC(=O)COC(=O)CN2C(=O)C3CCCCC3C2=O)c1C (stereo not drawn),inactive: 3.9%
10,CC(=O)c1c(C)[nH]c(-c2ccccc2)nc1=S,inconclusive: 33.6%
11,CN(C)c1ccc(/C=N\NC(=O)c2ccc(Cn3cc(Cl)cn3)cc2)cc1,inactive: -9.6%
12,COC(=O)Cc1cc(=O)[nH]c(/N=C(\N)Nc2ccc(C)cc2C)n1,inactive: 4.7%
13,CC1=C(C(=O)N(C(C)C)C(C)C)CC(CC(=O)NCc2ccco2)C(=O)N1Cc1ccc(F)cc1 (stereo not drawn),inactive: -5.3%
14,CCN(CC)C(=O)Cn1cc(/C=C(\C#N)C(=O)NC2CC2)c2ccccc21,inconclusive: 5.6%
15,O=C(NCCCN1CCOCC1)c1ccc(Cl)cc1Cl,inconclusive: -14.9%
16,CCCCn1c(N)c(N(CCOC)C(=O)CN2C(=O)C3CCCCC3C2=O)c(=O)[nH]c1=O (stereo not drawn),inactive: -1.2%
17,CN1CCN(S(=O)(=O)c2ccc(NC(=O)c3csc4ccccc34)cc2)CC1,inactive: -1%
18,C/C(=N\NC(=O)c1ccccn1)c1ccc(Cl)cc1,inconclusive: -23%
19,Cc1ccc(N/C=C2\C(=O)N(c3ccc(F)cc3F)C(c3cccnc3)S2(=O)=O)cc1 (stereo not drawn),inconclusive: -43.1%
20,OCC[C@@H]1C[C@H](O)[C@@H](O)[C@@]2(CCCCO2)O1,inactive: -1.9%

row,SMILES,inhibition
1,COc1ccc(CCN(C)C/C=C/c2ccccc2[N+](=O)[O-])cc1OC,inactive: -35%
2,CCCn1nc2cc(C(=O)NCCc3cccs3)ccc2c1OCC,inactive: -2%
3,CC1CCN(CCn2c(=S)[nH]c3ccccc3c2=O)CC1,inconclusive: 7.3%
4,COc1ccc(-c2oc3ccccc3c2C(=O)OCc2ccc([N+](=O)[O-])cc2)cc1,inactive: -11%
5,O=C(COc1ncnc2cc(Cl)ccc12)c1ccccc1,inconclusive: -40.4%
6,O=[N+]([O-])c1ccccc1S(=O)(=O)N1CCN(c2ccccc2)CC1,inconclusive: -1.1%
7,COCc1cc(CN2CCCC(C(=O)c3cccc(C(F)(F)F)c3)C2)ccc1OC (stereo not drawn),active: 43.4%
8,CN1CCN(c2nc3c(c(=O)[nH]c(=O)n3C)n2Cc2ccc(Cl)cc2)CC1,inconclusive: -1.5%
9,COCCCNC(=S)Nc1cc(C)c(C)cc1C,inconclusive: -50.2%
10,Cc1ccc(N(CC(=O)Nc2c(C)cccc2C)S(C)(=O)=O)cc1,inactive: -6.7%
11,CCc1ccc(-c2csc3nc[nH]c(=O)c23)cc1,inconclusive: -25.8%
12,O=C(CN1C(=O)/C(=C2\SC(=S)N(C3CCS(=O)(=O)C3)C2=O)c2ccccc21)Nc1ccc(F)cc1 (stereo not drawn),inconclusive: -5.7%
13,CCCCN1C(=O)C(CC(=O)NC2CCCCC2)CC(C(=O)N2CCCCCC2)=C1C (stereo not drawn),inactive: -14.2%
14,NC(=O)C1CCN(Cc2cccc(OCc3ccccc3)c2)CC1,inconclusive: 13%
15,O=S(=O)(c1cc(F)ccc1F)N1CCN(c2ccccn2)CC1,inconclusive: -1.1%
16,COc1ccc(CCn2c(O)c(C=Nc3ccccc3F)c(=O)[nH]c2=O)cc1OC,inconclusive: -70.8%
17,O=C(NNC(=O)c1ccc([N+](=O)[O-])cc1C(=O)O)c1ccncc1,inconclusive: -2.6%
18,COc1ccc(OC)c(C=NNC(=O)c2ccc(NS(=O)(=O)c3cccs3)cc2)c1,inactive: -4.9%
